The record followed here is paper PMC12040169 (PLOS Biology, 2025).

This is one part of the list.

The subject of the assay is T1, CTL2-GFP (C. trachomatis L2/434/Bu, GFP-expressing).
T1 construct: L2/434/Bu, GFP-expressing
Further details: species or system HeLa; Intracellular C. trachomatis growth in HeLa cells, bulk GFP fluorescence relative to DMSO. To be noted: bulk GFP, single well; 28.5 h, 10 µM; inhibitor.
For `O=C(Nc1ccccc1-c1nc2ccccc2s1)c1cc(Br)ccc1Cl` [CBK266280], the “% of control remaining” value is reported as 190.198%.

`Cc1cc(OC(C)C(=O)N(Cc2cccs2)C2CCS(=O)(=O)C2)cc(C)c1Cl` (stereo not shown) [CBK293962]: the “% of control remaining” value is listed as 115.541%.

On to `CC(C)NC(=O)Cn1nc(-c2cc3c(s2)CCC3)oc1=O` [CBK283801], for which the “% of control remaining” value came to 129.58%.

For the compound `COc1nc(-c2ccc(N(C)C)nc2)nn1C` [CBK307317], the “% of control remaining” value is 143.682%.

On to `CC(=O)OC(C(=O)N1CCCCCC1)c1ccc(Br)cc1` (stereo not shown) [CBK007027], for which the “% of control remaining” value turned out to be 100.637%.

As to `Cc1ccc(COCSc2nc3ccccc3n2CC(O)CO)cc1C` (stereo not shown) [CBK021195], the “% of control remaining” value was found to be 129.813%.

As for `Cn1c(=O)c2c(ncn2CC(=O)Nc2ccc(Cl)cc2Cl)n(C)c1=O` [CBK133227], the “% of control remaining” value came out at 130.716%.

As for `Cc1nc(-c2ccco2)nc2sc(C(=O)NCc3nnc4ccccn34)c(C)c12` [CBK297773], the “% of control remaining” value is given as 140.712%.

For the compound `CCOC(=O)C(C)N1C(=O)S/C(=C/c2ccc(Oc3ccc([N+](=O)[O-])cn3)cc2)C1=O` (stereo not shown) [CBK265114], the “% of control remaining” value came to 160.473%.

In the case of `CCN1CCN(C(=O)CCNC(=O)c2cccc(OC)c2)CC1` [CBK307580], the “% of control remaining” value is reported as 114.417%.

Regarding `OCCCNC(=S)Nc1ccc(Cl)cc1Cl` [CBK265264], the “% of control remaining” value is 124.581%.

Regarding `O=c1cc(N2CCCCC2)cnn1Cc1nccs1` [CBK307678], the “% of control remaining” value stood at 102.851%.

For the compound `CCS(=O)(=O)N1CCC2(C=Cc3cc(F)ccc3O2)CC1` [CBK284747], the “% of control remaining” value came out at 74.5007%.

Consider `COc1ccc(-n2nc3cc(C)c(NC(=O)c4ccc(-c5ccc([N+](=O)[O-])cc5OC)o4)cc3n2)cc1` [CBK263766], for which the “% of control remaining” value is recorded as 123.754%.

`CCCC1COC(c2ccc(C#N)cc2)OC1` (stereo not shown) [CBK033941]: the “% of control remaining” value turned out to be 96.7884%.

As to `COc1ccccc1C(=O)N1CCC(Cc2ccc(-c3ccccc3)cc2)(C(N)=O)CC1` [CBK285774], the “% of control remaining” value amounted to 139.583%.

On to `CC(C)[C@H]1CN(Cc2ccco2)CCN1Cc1ccccn1` [CBK284275], for which the “% of control remaining” value is recorded as 83.5575%.

On to `O=C1c2ccccc2C(=O)N1Cc1ccc(S(=O)(=O)NCc2ccc3c(c2)OCO3)cc1` [CBK264180], for which the “% of control remaining” value amounted to 134.164%.

Consider `O=c1c2sccc2[nH]c(=S)n1CCc1ccccc1` [CBK288486], for which the “% of control remaining” value amounted to 87.6925%.

As to `NS(=O)(=O)c1ccc(C(=O)Nc2cnc(-c3ccc(F)cc3)c(-c3ccsc3)n2)cc1` [CBK036998], the “% of control remaining” value worked out at 179.176%.

As for `COc1ccc(-c2nnc(SCCC(=O)O)[nH]2)cc1` [CBK300506], the “% of control remaining” value worked out at 152.985%.

In the case of `NC(=O)C1(Cc2ccccc2-c2ccccc2)CCN(C(=O)CCc2ccccc2)CC1` [CBK285595], the “% of control remaining” value turned out to be 121.81%.

Take `O=C(CCc1nc2sc3c(c2c(=O)[nH]1)CCCC3)N1CCCC1` [CBK306069]: the “% of control remaining” value was 148.469%.

On to `Cc1ccc(S(=O)(=O)NCCNc2ccc(C(F)(F)F)cc2[N+](=O)[O-])cc1` [CBK264945], for which the “% of control remaining” value stood at 121.781%.

As for `COc1ccc(C(C)C)cc1-c1cncc(N2CCN(c3ccccc3C#N)CC2)n1` [CBK037927], the “% of control remaining” value came out at 104.51%.

As to `Nc1ncc(-c2ccc(C(=O)N3CCOCC3)cc2)nc1C(=O)NC1CCCC1` [CBK149155], the “% of control remaining” value was found to be 77.0227%.

For the compound `COc1ccc(/N=C2\S[C@H]3[C@H]([C@@H](O)[C@H](O)C[C@@H]3C(N)=O)N2Cc2cccs2)cc1` [CBK288943], the “% of control remaining” value worked out at 121.024%.

Turning to `CCOC(=O)C1CCN(S(=O)(=O)c2c(C)noc2C)CC1` [CBK051112], the “% of control remaining” value came out at 144.682%.

With `O=C(c1ccc(NC2CC2)nc1)N1CCC(CN2CCOCC2)CC1` [CBK305970], the “% of control remaining” value stood at 70.8568%.

Take `Cc1cc(C)nc(Nc2noc(-c3ccccc3)n2)n1` [CBK269971]: the “% of control remaining” value is recorded as 131.22%.

Turning to `CC(=O)OCc1ccc(CN2CCCCCC2c2cc(C)no2)o1` (stereo not shown) [CBK283007], the “% of control remaining” value was found to be 127.166%.

With `CCCn1c(O)cc(=O)nc1SCC(=O)NCc1ccc(OC)c(OC)c1` [CBK295592], the “% of control remaining” value is given as 127.55%.

Regarding `COc1ccc2[nH]c3c(c2c1)CCNC31CCN(Cc2ccc(S(C)(=O)=O)cc2)CC1` [CBK039753], the “% of control remaining” value was determined as 133.452%.

Consider `O=C(NCc1cccnc1)c1ccc(N2CCN(C(=O)c3ccccc3C(F)(F)F)CC2)nn1` [CBK153215], for which the “% of control remaining” value was 100.76%.

For `Cc1noc(C)c1NC(=O)c1cscn1` [CBK200397], the “% of control remaining” value was found to be 125.673%.

For `CNC(=O)CSc1ncnc2c1cnn2-c1ccc(F)cc1` [CBK287633], the “% of control remaining” value is recorded as 99.039%.

For `Cn1c(/N=N/c2c(-c3ccccc3)n(C)c3ccccc23)nc2ccccc21` [CBK262114], the “% of control remaining” value was 100%.

In the case of `Nc1nonc1-n1nnc(C(=O)O)c1-c1cccs1` [CBK266674], the “% of control remaining” value is listed as 119.939%.

As for `COc1ccc(Cn2c(=O)n(S(=O)(=O)c3ccc(-c4cc(C(F)(F)F)n(C)n4)s3)c3ccccc32)cc1` [CBK106552], the “% of control remaining” value is given as 139.655%.

Take `CCC(NC(=O)Nc1ccc(N2CCOCC2)nc1)c1cnn(CC)c1` (stereo not shown) [CBK305172]: the “% of control remaining” value is reported as 107.118%.

As to `Cc1nn(C)cc1S(=O)(=O)Nc1ccc2c(ccn2C)c1` [CBK282806], the “% of control remaining” value amounted to 158.198%.

In the case of `Cc1ccc(NC(=O)CC2Nc3ccccc3OC2=O)cc1C` (stereo not shown) [CBK270214], the “% of control remaining” value was 156.727%.

Take `CCSc1nnnn1-c1cccc(NC(C)=O)c1` [CBK305511]: the “% of control remaining” value amounted to 117.05%.

`CC(C)(C)OC(=O)N1CCC(Oc2nccnc2Cl)CC1` [CBK067386]: the “% of control remaining” value was determined as 149.858%.

With `O=C(c1ccncc1)N1CCCCC1c1nc2ccccc2[nH]1` (stereo not shown) [CBK281641], the “% of control remaining” value worked out at 121.02%.

On to `COc1ccc(S(=O)(=O)N2CCSC2)cc1C` [CBK097882], for which the “% of control remaining” value came to 99.0471%.

For `COC(=O)c1cc(=O)c2ccccc2o1` [CBK000064], the “% of control remaining” value turned out to be 127.11%.

As to `Cc1nc(NC(=O)Cn2nc(N3CCSCC3)ccc2=O)sc1C` [CBK307622], the “% of control remaining” value was 70.097%.

In the case of `COc1ccc(-n2c(=O)[nH]cc(C(=O)Nc3cc(C)ccc3OC)c2=O)cc1` [CBK287548], the “% of control remaining” value came to 111.231%.

As to `N/C(=N\OC(=O)c1cc(-c2ccccc2)nc2ccccc12)c1cccnc1` [CBK265106], the “% of control remaining” value turned out to be 195.531%.

As for `Cc1nn(-c2ccccn2)c(C)c1[C@@H]1C=C[C@@H](NS(C)(=O)=O)C1` [CBK289169], the “% of control remaining” value came out at 131.611%.

For the compound `CC(=O)Nc1ccc(S(=O)(=O)N2CCCCC2C(=O)O)cc1` (stereo not shown) [CBK265241], the “% of control remaining” value is recorded as 120.75%.

As to `CC(=O)Nc1cccc(NC(=O)c2ccc(CN3CCCCC3)cc2)c1` [CBK295596], the “% of control remaining” value is 141.481%.

As to `FC(F)(F)c1ccc(SCc2ccc(Cl)c(Cl)c2)nc1` [CBK103713], the “% of control remaining” value is given as 106.591%.

For the compound `CC(C)C(=O)NCCn1nc(-c2ccccc2F)cc1CN(C)C` [CBK281693], the “% of control remaining” value amounted to 134.941%.

Regarding `COc1cc(C(C[N+](=O)[O-])c2c(C)[nH]c3ccccc23)ccc1O` (stereo not shown) [CBK115317], the “% of control remaining” value is listed as 108.683%.

As to `O=C(O)C(c1c[nH]c2ccccc12)N1CCc2ccccc2C1` (stereo not shown) [CBK286664], the “% of control remaining” value was found to be 118.045%.

Turning to `CSc1nc(C)c(CCC(=O)Nc2ccc(N3CC(C)OC(C)C3)nc2)c(C)n1` (stereo not shown) [CBK298266], the “% of control remaining” value is 135.877%.

Take `CCn1nc(C)c(-c2cncn2Cc2ccccc2CN(C)C)c1C` [CBK281998]: the “% of control remaining” value is 129.842%.

With `COc1ccc2c3c(cc(Cl)cc13)CC(N)C2` (stereo not shown) [CBK016450C], the “% of control remaining” value was determined as 86.269%.

Turning to `CCNC(=O)Nc1c[nH]nc1C1CCCN(c2cccc(F)c2C#N)C1` (stereo not shown) [CBK306406], the “% of control remaining” value was determined as 129.07%.

Consider `NC(=O)CSc1nnc(-c2cc3ccccc3o2)n1Cc1ccccc1` [CBK268964], for which the “% of control remaining” value is reported as 152.865%.

In the case of `Cc1ccc(CN2C(=O)CC(Sc3ncccc3C(=O)O)C2=O)cc1` (stereo not shown) [CBK270006], the “% of control remaining” value is reported as 99.4166%.

With `Nc1nc(CN2C(=O)c3ccccc3C2=O)n[nH]1` [CBK266655], the “% of control remaining” value was 118.897%.

For the compound `CCOc1ccccc1NC(=O)NC(=O)C1CCN(C(C)c2ccc(Cl)cc2)CC1` (stereo not shown) [CBK034899], the “% of control remaining” value is listed as 142.807%.

For the compound `CN(C)c1cccc(-c2cncc(NCCCO)n2)c1` [CBK065619], the “% of control remaining” value is reported as 88.6117%.

As to `Cc1ccn(CCNC(=O)c2cc(-c3cccs3)no2)n1` [CBK282679], the “% of control remaining” value worked out at 118.201%.

For the compound `CCn1cc(C2CN(S(=O)(=O)c3c(C)c(C)cc(C)c3C)CCO2)cn1` (stereo not shown) [CBK306171], the “% of control remaining” value is recorded as 129.273%.

`Cc1sc2ncn(Cc3c(Cl)cccc3Cl)c(=O)c2c1C` [CBK265355]: the “% of control remaining” value is listed as 100%.

For the compound `CCCCn1c(SCC(=O)NCC2(c3ccc4c(c3)OCCO4)CCCC2)n[nH]c1=O` [CBK296736], the “% of control remaining” value came out at 113.663%.

As for `C[C@H]1CN([C@H]2C[C@@H](O)[C@@H](CO)O2)C(=O)NC1=O` [CBK201206], the “% of control remaining” value is reported as 118.65%.

Consider `CCc1[nH]c2ccc(C(=O)NCCn3ccnc3C)cc2c1C` [CBK282505], for which the “% of control remaining” value is recorded as 125.518%.

For `c1cncc(-c2cncc(NCCc3c[nH]c4ccccc34)n2)c1` [CBK065186], the “% of control remaining” value stood at 114.86%.

For the compound `Cc1cccc(C)c1N(C1CCNCC1)S(=O)(=O)c1ccc2c(c1)CCO2` [CBK153668T], the “% of control remaining” value worked out at 109.988%.

As for `CCOC(=O)c1c(C)n(-c2ccc(OC)cc2)c2ccc(O)c(CN(C)C)c12` [CBK261609C], the “% of control remaining” value is recorded as 115.821%.

With `CC(c1ccc(F)c(F)c1)N(C)C(=O)CN1CCCc2occc2C1` (stereo not shown) [CBK304456], the “% of control remaining” value is 128.008%.

For `CCOc1ccc(-c2cncc(Nc3ccc(C#N)cc3)n2)cc1` [CBK065862], the “% of control remaining” value amounted to 123.389%.

For the compound `CC(=O)Nc1ccc(CN2CCCCCC2c2cc(C)no2)cc1` (stereo not shown) [CBK285415], the “% of control remaining” value was found to be 127.689%.

Consider `COc1ccccc1-c1noc(CCCC(=O)Nc2cccnc2)n1` [CBK268848], for which the “% of control remaining” value turned out to be 116.608%.
